Measured values reported in paper PMC3157345.
These are yes or no findings as the source states them, for the method shown. In cells and extracts the contact can be indirect. For part of these data: Sequences can lack the tags named with a protein.

Protein sequences, listed by entry. Tags and fused reporters are not part of them. Residues count along the entry.
UniProt Q9NRC8: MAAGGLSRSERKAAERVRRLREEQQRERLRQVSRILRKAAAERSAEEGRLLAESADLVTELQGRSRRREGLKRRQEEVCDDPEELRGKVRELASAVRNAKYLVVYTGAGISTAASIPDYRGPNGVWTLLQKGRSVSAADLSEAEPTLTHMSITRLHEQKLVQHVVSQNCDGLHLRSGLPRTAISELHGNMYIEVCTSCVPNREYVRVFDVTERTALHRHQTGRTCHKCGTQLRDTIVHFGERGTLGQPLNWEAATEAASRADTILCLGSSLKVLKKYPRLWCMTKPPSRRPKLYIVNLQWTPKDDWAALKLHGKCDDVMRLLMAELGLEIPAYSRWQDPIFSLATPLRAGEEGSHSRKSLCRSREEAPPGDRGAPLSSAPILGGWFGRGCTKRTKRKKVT
UniProt Q96EB6: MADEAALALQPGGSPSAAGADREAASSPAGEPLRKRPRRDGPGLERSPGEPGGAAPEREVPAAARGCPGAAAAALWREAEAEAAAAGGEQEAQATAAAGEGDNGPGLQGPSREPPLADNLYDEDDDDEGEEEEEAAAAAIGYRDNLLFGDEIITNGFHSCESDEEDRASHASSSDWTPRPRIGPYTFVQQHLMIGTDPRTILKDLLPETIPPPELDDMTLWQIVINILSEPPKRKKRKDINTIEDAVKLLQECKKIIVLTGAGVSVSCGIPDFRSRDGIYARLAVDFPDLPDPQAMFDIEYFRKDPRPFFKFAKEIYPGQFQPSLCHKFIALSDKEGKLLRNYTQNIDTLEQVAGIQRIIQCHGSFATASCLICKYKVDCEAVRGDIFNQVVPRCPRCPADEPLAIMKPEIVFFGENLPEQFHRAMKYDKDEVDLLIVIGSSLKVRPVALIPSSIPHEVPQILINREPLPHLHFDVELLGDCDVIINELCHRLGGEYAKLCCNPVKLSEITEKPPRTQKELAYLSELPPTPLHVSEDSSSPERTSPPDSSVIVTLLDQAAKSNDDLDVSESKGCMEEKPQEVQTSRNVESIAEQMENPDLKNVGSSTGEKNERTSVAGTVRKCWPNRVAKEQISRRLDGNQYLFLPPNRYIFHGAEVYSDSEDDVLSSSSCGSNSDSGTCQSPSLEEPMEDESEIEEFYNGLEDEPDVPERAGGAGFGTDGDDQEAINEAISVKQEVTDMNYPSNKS
UniProt Q8N6T7: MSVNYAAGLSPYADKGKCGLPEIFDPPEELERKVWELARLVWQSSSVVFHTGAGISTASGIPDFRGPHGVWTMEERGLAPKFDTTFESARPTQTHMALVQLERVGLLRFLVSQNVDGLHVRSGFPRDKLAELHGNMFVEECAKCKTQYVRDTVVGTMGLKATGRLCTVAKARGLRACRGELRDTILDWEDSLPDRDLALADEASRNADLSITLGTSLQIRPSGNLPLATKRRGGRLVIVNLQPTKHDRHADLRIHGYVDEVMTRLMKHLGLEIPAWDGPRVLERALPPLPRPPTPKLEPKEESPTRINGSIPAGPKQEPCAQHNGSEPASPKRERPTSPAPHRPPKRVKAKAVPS
UniProt Q9NXA8, residues 37-310: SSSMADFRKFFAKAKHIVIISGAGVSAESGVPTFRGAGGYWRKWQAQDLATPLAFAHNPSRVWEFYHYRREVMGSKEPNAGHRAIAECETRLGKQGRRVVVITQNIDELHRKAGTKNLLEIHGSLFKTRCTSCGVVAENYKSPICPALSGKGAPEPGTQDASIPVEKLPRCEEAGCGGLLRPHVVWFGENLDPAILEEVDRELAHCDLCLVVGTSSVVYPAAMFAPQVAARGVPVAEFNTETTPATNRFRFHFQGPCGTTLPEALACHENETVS
UniProt P31040, residues 43-664: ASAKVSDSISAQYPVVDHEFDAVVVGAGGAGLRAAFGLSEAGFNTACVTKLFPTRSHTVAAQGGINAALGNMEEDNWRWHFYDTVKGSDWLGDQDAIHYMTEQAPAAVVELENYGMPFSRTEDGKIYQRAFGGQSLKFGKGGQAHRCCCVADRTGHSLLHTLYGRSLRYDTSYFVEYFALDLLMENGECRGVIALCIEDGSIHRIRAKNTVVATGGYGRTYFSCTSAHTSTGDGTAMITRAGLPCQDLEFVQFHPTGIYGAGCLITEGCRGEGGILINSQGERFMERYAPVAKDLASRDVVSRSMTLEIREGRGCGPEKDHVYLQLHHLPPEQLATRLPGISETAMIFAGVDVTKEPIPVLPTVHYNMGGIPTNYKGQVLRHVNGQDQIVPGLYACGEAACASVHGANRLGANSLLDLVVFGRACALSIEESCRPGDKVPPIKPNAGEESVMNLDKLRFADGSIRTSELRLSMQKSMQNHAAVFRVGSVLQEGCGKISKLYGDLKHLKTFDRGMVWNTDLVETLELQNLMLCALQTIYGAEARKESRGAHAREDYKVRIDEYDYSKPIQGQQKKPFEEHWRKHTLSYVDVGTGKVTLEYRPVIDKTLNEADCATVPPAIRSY

Tests used:
Test in all cases: co-IP; FLAG-IPs from HEK293T cells transiently expressing FLAG-tagged sirtuins (SIRT1-7 or SIRT3-5), immunoblotted for SDHA, OSCP, FLAG or with antibody cocktails against complex II and OXPHOS subunits
[1] = biological target: T1, SIRT4-FLAG (UniProt Q9Y6E7)
T1 sequence: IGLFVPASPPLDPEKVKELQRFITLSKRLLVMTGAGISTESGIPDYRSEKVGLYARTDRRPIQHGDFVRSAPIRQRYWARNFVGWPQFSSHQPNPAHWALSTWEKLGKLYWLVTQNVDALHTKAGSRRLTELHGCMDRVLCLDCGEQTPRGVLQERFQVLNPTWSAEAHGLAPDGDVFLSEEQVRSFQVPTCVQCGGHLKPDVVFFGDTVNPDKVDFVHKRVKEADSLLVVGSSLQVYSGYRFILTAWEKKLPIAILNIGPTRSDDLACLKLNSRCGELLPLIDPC

[2] = biological target: SIRT7-FLAG (UniProt Q9NRC8)
[3] = biological target: SIRT1-FLAG (UniProt Q96EB6)
[4] = biological target: T2, SIRT2-FLAG (UniProt Q8IXJ6)
T2 sequence: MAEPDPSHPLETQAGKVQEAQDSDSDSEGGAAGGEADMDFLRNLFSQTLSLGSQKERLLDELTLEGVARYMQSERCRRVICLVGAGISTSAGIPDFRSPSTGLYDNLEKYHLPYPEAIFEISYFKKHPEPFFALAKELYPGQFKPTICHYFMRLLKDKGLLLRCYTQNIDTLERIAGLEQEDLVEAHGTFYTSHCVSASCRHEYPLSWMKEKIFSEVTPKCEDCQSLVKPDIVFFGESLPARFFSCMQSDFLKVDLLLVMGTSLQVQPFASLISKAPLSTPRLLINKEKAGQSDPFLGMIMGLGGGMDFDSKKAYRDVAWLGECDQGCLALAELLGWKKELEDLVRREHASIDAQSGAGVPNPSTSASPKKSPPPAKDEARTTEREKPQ

[5] = biological target: SIRT6-FLAG (UniProt Q8N6T7)
[6] = biological target: SIRT5-FLAG (UniProt Q9NXA8)

Measured: binding

SDHA subunit of complex II (succinate dehydrogenase) (from UniProt P31040 43-664)
no binding: [1] | [2] | [3] | [4] | [5] | [6]

B1: ATP5O/OSCP (protein, UniProt P48047 24-213)
chain: FAKLVRPPVQVYGIEGRYATALYSAASKQNKLEQVEKELLRVAQILKEPKVAASVLNPYVKRSIKVKSLNDITAKERFSPLTTNLINLLAENGRLSNTQGVVSAFSTMMSVHRGEVPCTVTSASPLEEATLSELKTVLKSFLSQGQVLKLEAKTDPSILGGMIVRIGEKYVDMSVKTKIQKLGRAMREIV
no binding: [1] | [2] | [3] | [4] | [5] | [6]
